Source: PubChem BioAssay AID504764 (Drosophila RNAi Screening Center, 2011)

- Purpose: 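Knock-downs that raise or lower a Notch target reporter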 (primary screen)
- Cell system: Drosophila Kc167 cells
- Reagents: long dsRNA against Drosophila genes
- Duration: about 5 days (4 days dsRNA, then 24 h after transfection)
- Challenge: transfection of constitutively active membrane-tethered Notch lacking the extracellular domain, read 24 h later
- Measured: 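Light from a Notch-responsive E(spl)m3 luciferase reporter under active Notch, with control-promoter and no-Notch reporter wells to normalise; raw counts from paired wells a and b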
- Direction: induced reporter light, run 1, well a and induced reporter light, run 1, well b: higher = more light from the Notch target reporter with active Notch; control promoter light, run 1, well a and control promoter light, run 1, well b: higher = more light from the viral control promoter (cell number, transfection, viability); uninduced reporter light, run 1, well a: higher = more light from the Notch target reporter without active Notch
- Call rule: 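Wells with low control signal or poorly matching duplicates excluded; duplicates averaged; per source plate, z beyond ±2 for induced/control log2 ratio or beyond ±1.8 for induced/uninduced marks a hit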
- Calls: active = modifier hit (raised or lowered Notch signal); inactive = not a hit
The deposit covers about 22,000 reagents; below is an unselected part of those with a known target gene and a result. In the full data, 403 (1.9%) were called active. 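Unnormalised raw counts per well; ratio z-scores behind the hit calls and whether each hit raises or lowers signal are not deposited.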 Names joined by + are all predicted targets of the reagent. Not given: the amount of reagent.

| Gene | amplicon | induced reporter light, run 1, well a | induced reporter light, run 1, well b | control promoter light, run 1, well a | control promoter light, run 1, well b | uninduced reporter light, run 1, well a | call |
| --- | --- | --- | --- | --- | --- | --- | --- |
| Gr59c | DRSC04185 | 1.82e5 | 1.47e5 | 1.53e5 | 1.50e5 | 13260 | inactive |
| eIF4G2 | DRSC14207 | 2.11e5 | 1.93e5 | 2.29e5 | 2.53e5 | 16510 | inactive |
| CG31663 | DRSC00078 | 1.05e5 | 95105 | 1.76e5 | 1.14e5 | 9695 | inactive |
| CG31663 | DRSC00389 | 1.64e5 | 1.98e5 | 1.39e5 | 1.77e5 | 14105 | inactive |
| CG31663 | DRSC00390 | 1.96e5 | 1.63e5 | 3.34e5 | 2.76e5 | 14425 | inactive |
| CG31663 | DRSC00393 | 1.87e5 | 1.72e5 | 1.63e5 | 59960 | 11180 | inactive |
| Lime | DRSC06752 | 1.20e5 | 1.47e5 | 2.16e5 | 1.71e5 | 12485 | inactive |
| MYPT-75D | DRSC10743 | 1.16e5 | 1.01e5 | 60810 | 78340 | 9150 | inactive |
| CG18530 | DRSC15341 | 1.07e5 | 1.19e5 | 1.34e5 | 74460 | 6582 | inactive |
| Osi11 | DRSC12282 | 1.23e5 | 1.22e5 | 1.10e5 | 1.13e5 | 6880 | inactive |
| AdoR | DRSC16556 | 54375 | 66045 | 75620 | 90805 | 5470 | inactive |
| dy | DRSC20325 | 1.30e5 | 1.41e5 | 1.85e5 | 2.15e5 | 7710 | inactive |
| Or83c | DRSC12359 | 1.09e5 | 1.16e5 | 1.47e5 | 1.06e5 | 15470 | inactive |
| CG11307 | DRSC11648 | 1.01e5 | 1.24e5 | 73120 | 88305 | 8625 | inactive |
| Atg10 + CG18853 + CG12822 | DRSC20757 | 1.88e5 | 1.63e5 | 3.25e5 | 2.81e5 | 14545 | inactive |
| MFS16 | DRSC04051 | 43370 | 41345 | 34875 | 45140 | 3245 | inactive |
| CG12213 | DRSC14478 | 1.38e5 | 1.19e5 | 82935 | 1.09e5 | 9150 | inactive |
| CG12213 | DRSC22109 | – | – | – | – | – | inactive |
| Adk3 | DRSC05917 | 1.64e5 | 1.73e5 | 1.23e5 | 1.34e5 | 9835 | inactive |
| ZnT63C | DRSC08032 | 1.97e5 | 1.92e5 | 2.26e5 | 2.92e5 | 15220 | inactive |
| ZnT63C | DRSC08033 | 2.00e5 | 1.77e5 | 1.69e5 | 1.77e5 | 15035 | inactive |
| ZnT63C | DRSC08519 | 1.70e5 | 1.80e5 | 1.22e5 | 54685 | 16920 | inactive |
| ZnT63C | DRSC21989 | – | – | – | – | – | inactive |
| Fkbp59 | DRSC03323 | 1.31e5 | 1.60e5 | 78350 | 1.10e5 | 17738 | inactive |
| Gcn5 | DRSC11248 | 1.05e5 | 98070 | 66360 | 41930 | 7895 | inactive |
| CG12486 (retired record) | DRSC09888 | 1.68e5 | 1.75e5 | 1.91e5 | 1.95e5 | 7535 | inactive |
| tok | DRSC17087 | 24030 | 26825 | 22165 | 24560 | 1800 | inactive |
| HDAC11 | DRSC14280 | 1.57e5 | 1.45e5 | 1.70e5 | 1.58e5 | 11820 | inactive |
| CG14820 | DRSC10191 | 2.08e5 | 1.39e5 | 1.68e5 | 1.69e5 | 12140 | inactive |
| t-Grip91 | DRSC01506 | 97165 | 79285 | 79740 | 70130 | 7595 | inactive |
| Kdm3 | DRSC16393 | 51325 | 73815 | 55655 | 53890 | 3715 | inactive |
| CG12439 | DRSC02168 | 1.26e5 | 1.66e5 | 65105 | 93915 | 19550 | inactive |
| CG11131 | DRSC11636 | 1.32e5 | 1.45e5 | 1.04e5 | 1.28e5 | 7640 | inactive |
| fy | DRSC03533 | 1.21e5 | 1.37e5 | 62025 | 77870 | 15265 | inactive |
| CG13367 | DRSC18485 | 1.33e5 | 1.32e5 | 2.41e5 | 2.09e5 | 10165 | inactive |
| CG13367 | DRSC18486 | 1.43e5 | 1.82e5 | 2.54e5 | 3.26e5 | 12810 | inactive |
| CG11345 | DRSC08176 | 2.67e5 | 2.31e5 | 2.52e5 | 2.43e5 | 17645 | inactive |
| CG6293 | DRSC16011 | 1.37e5 | 1.25e5 | 89655 | 82890 | 9470 | inactive |
| CG12531 | DRSC19466 | 93860 | 89540 | 1.07e5 | 1.46e5 | 12710 | inactive |
| Chpf | DRSC19491 | 1.74e5 | 1.13e5 | 1.83e5 | 1.74e5 | 10085 | inactive |
| Chpf | DRSC19893 | 1.98e5 | 1.83e5 | 2.29e5 | 1.98e5 | 13890 | inactive |
| AttB | DRSC06734 | 79625 | 84025 | 1.08e5 | 1.05e5 | 8615 | inactive |
| Pcyt1 | DRSC08157 | 1.03e5 | 88915 | 1.72e5 | 2.23e5 | 6480 | inactive |
| Galphao | DRSC07430 | 83925 | 90445 | 69535 | 66785 | 7292 | inactive |
| cato | DRSC07589 | 1.20e5 | 98250 | 1.11e5 | 1.16e5 | 11535 | inactive |
| CG10560 | DRSC14256 | 1.45e5 | 1.39e5 | 2.24e5 | 1.94e5 | 13960 | inactive |
| PGS1 | DRSC16304 | 1.85e5 | 1.82e5 | 1.74e5 | 1.80e5 | 14950 | inactive |
| CG9269 | DRSC16465 | 2.33e5 | 2.49e5 | 2.45e5 | 2.33e5 | 17415 | inactive |
| CG11581 | DRSC19407 | 1.30e5 | 89960 | 1.21e5 | 96615 | 15662 | inactive |
| Mpi | DRSC16417 | 54285 | 53115 | 69645 | 47095 | 3370 | inactive |

Laid out differently: results already given
Gene | amplicon | induced reporter light, run 1, well a | induced reporter light, run 1, well b | control promoter light, run 1, well a | control promoter light, run 1, well b | uninduced reporter light, run 1, well a | call
ZnT63C | DRSC08033 | 2.00e5 | 1.77e5 | 1.69e5 | 1.77e5 | 15035 | inactive
ZnT63C | DRSC08519 | 1.70e5 | 1.80e5 | 1.22e5 | 54685 | 16920 | inactive
ZnT63C | DRSC21989 | – | – | – | – | – | inactive
